# Laboratory results: the supplement of paper PMC8728848
# This is one part of the list.
# B1: Clec39 (Caenorhabditis elegans) (protein)
# chain: MTSFYDNSSSSSKPVPLKTSRAQKIQILIFDNWKLILYGAISTLILVLAIMFSTLFFALPAANCDENSEPTKYYTTNAEITTTITTTNQKTTSTASSHLTTISSSATQIYSESSSSSTSQSTFTQSPPEISTTTIAPSDFSCQHGFTLVNNKCWKLVTSNQARPDADKICNGYGGATLFSIKSEQDNRAMIHFVKGQDIDFLWSGLLCSAGEPISCIWDIENGSTANYSNFADGFPNIVYGNCVYFITSGDEAGQWGNEQCGQVMNFVCELPATFQGKDGCKNNYEKSCYLRFDLNLTVPQAQNFCLEKCANLVSIHSANEVRFIMTIYDFIGEILIGALAPAQDFIYWLDGTPANYNNLKFFYNSTCVHMTVAPGMQNVGKWFTRFCTETGKFLCKRSIKNSCT
# Legend:
# Assay in all cases: glycan array binding signal (z-score within array); higher = stronger binding
# Settings in all cases: glycan notation: IUPAC condensed, linker removed
# [1] = biological target: Gal6S(b1-4)Glc6S
# Summary of the method: (§1)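 The Consortium for Functional Glycomics database supplied 3228 glycan arrays, of which those lacking an available protein sequence were dropped. The binding signal, a within-array Z-score, was averaged across arrays of the same protein sequence and across linkers. Negative scores can be read as non-binding.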
# [2] = biological target: Gal6S(b1-4)GlcNAc
# Summary of the method: as §1
# [3] = biological target: Gal6S(b1-4)GlcNAc6S
# Summary of the method: as §1
# [4] = biological target: GalNAc(a1-3)Gal
# Summary of the method: as §1
# [5] = biological target: GalNAc(a1-3)GalNAc
# Summary of the method: as §1
# [6] = biological target: GalNAc(a1-3)GalNAc(b1-3)Gal(a1-4)Gal(b1-4)Glc
# Summary of the method: as §1
# [7] = biological target: GalNAc(a1-3)GalNAc(b1-3)Gal(a1-4)Gal(b1-4)GlcNAc
# Summary of the method: as §1
# [8] = biological target: GalNAc(b1-3)Gal
# Summary of the method: as §1
# [9] = biological target: GalNAc(b1-3)Gal(a1-4)Gal(b1-4)GlcNAc
# Summary of the method: as §1
# [10] = biological target: GalNAc(b1-3)Gal(a1-4)Gal(b1-4)GlcNAc(b1-3)Gal(b1-4)Glc
# Summary of the method: as §1
# [11] = biological target: GalNAc(b1-3)Gal(a1-6)Gal(b1-4)Glc
# Summary of the method: as §1
# [12] = biological target: GalNAc(b1-3)GalNAc
# Summary of the method: as §1
# [13] = biological target: GalNAc(b1-3)GlcNAc
# Summary of the method: as §1
# [14] = biological target: GalNAc(b1-4)Gal(b1-4)Glc
# Summary of the method: as §1
# [15] = biological target: GalNAc(b1-4)GlcNAc
# Summary of the method: as §1
# [16] = biological target: GalNAc(b1-4)GlcNAc(b1-2)Man
# Summary of the method: as §1
# [17] = biological target: GalNAc(b1-4)GlcNAc(b1-2)Man(a1-3)[GalNAc(b1-4)GlcNAc(b1-2)Man(a1-6)]Man(b1-4)GlcNAc(b1-4)GlcNAc
# Summary of the method: as §1
# [18] = biological target: GalNAc(b1-4)GlcNAc(b1-3)GalNAc(b1-4)GlcNAc
# Summary of the method: as §1
# [19] = biological target: GalNAc(b1-4)GlcNAc6S
# Summary of the method: as §1
# [20] = biological target: GalNAc(b1-6)GalNAc
# Summary of the method: as §1
# [21] = biological target: GalNAc3S(b1-4)GlcNAc
# Summary of the method: as §1
# [22] = biological target: GalNAc3S(b1-4)GlcNAc3S
# Summary of the method: as §1
# [23] = biological target: GalNAc3S(b1-4)[Fuc(a1-3)]GlcNAc
# Summary of the method: as §1
# [24] = biological target: GalNAc4S6S(b1-4)GlcNAc
# Summary of the method: as §1
# [25] = biological target: GalNAc6S(b1-4)GlcNAc
# Summary of the method: as §1
# [26] = biological target: Glc(a1-4)Glc
# Summary of the method: as §1
# [27] = biological target: Glc(a1-4)Glc(a1-4)Glc(a1-4)Glc
# Summary of the method: as §1
# [28] = biological target: Glc(a1-6)Glc(a1-6)Glc
# Summary of the method: as §1
# [29] = biological target: Glc(a1-6)Glc(a1-6)Glc(a1-6)Glc
# Summary of the method: as §1
# [30] = biological target: Glc(b1-4)Glc
# Summary of the method: as §1
# [31] = biological target: Glc(b1-6)Glc
# Summary of the method: as §1
# [32] = biological target: GlcA(b1-3)Gal
# Summary of the method: as §1
# [33] = biological target: GlcA(b1-3)GlcNAc
# Summary of the method: as §1
# [34] = biological target: GlcA(b1-6)Gal
# Summary of the method: as §1
# [35] = biological target: GlcA3S(b1-3)Gal(b1-4)GlcNAc(b1-2)Man
# Summary of the method: as §1
# [36] = biological target: GlcA3S(b1-3)Gal(b1-4)GlcNAc(b1-3)Gal(b1-4)Glc
# Summary of the method: as §1
# [37] = biological target: GlcNAc(a1-3)Gal(b1-4)GlcNAc
# Summary of the method: as §1
binder,measurement,setting,value
B1,glycan array binding signal (z-score),[1],2
same,glycan array binding signal (z-score),[2],1.33
same,glycan array binding signal (z-score),[3],1.23
same,glycan array binding signal (z-score),[4],-0.675
same,glycan array binding signal (z-score),[5],-1.26
same,glycan array binding signal (z-score),[6],0.099
same,glycan array binding signal (z-score),[7],-0.848
same,glycan array binding signal (z-score),[8],0.618
same,glycan array binding signal (z-score),[9],1.49
same,glycan array binding signal (z-score),[10],-0.359
same,glycan array binding signal (z-score),[11],-1.35
same,glycan array binding signal (z-score),[12],-0.16
same,glycan array binding signal (z-score),[13],-0.927
same,glycan array binding signal (z-score),[14],0.409
same,glycan array binding signal (z-score),[15],0.285
same,glycan array binding signal (z-score),[16],-0.862
same,glycan array binding signal (z-score),[17],0.422
same,glycan array binding signal (z-score),[18],-0.798
same,glycan array binding signal (z-score),[19],-0.307
same,glycan array binding signal (z-score),[20],-0.849
same,glycan array binding signal (z-score),[21],-0.828
same,glycan array binding signal (z-score),[22],0.629
same,glycan array binding signal (z-score),[23],1.07
same,glycan array binding signal (z-score),[24],0.327
same,glycan array binding signal (z-score),[25],-0.478
same,glycan array binding signal (z-score),[26],0.424
same,glycan array binding signal (z-score),[27],-0.369
same,glycan array binding signal (z-score),[28],-0.01
same,glycan array binding signal (z-score),[29],0.296
same,glycan array binding signal (z-score),[30],-0.573
same,glycan array binding signal (z-score),[31],0.595
same,glycan array binding signal (z-score),[32],0.927
same,glycan array binding signal (z-score),[33],-0.085
same,glycan array binding signal (z-score),[34],0.019
same,glycan array binding signal (z-score),[35],-0.239
same,glycan array binding signal (z-score),[36],-0.756
same,glycan array binding signal (z-score),[37],0.354

# Reprinted at random: 3 entries already listed
binder,measurement,setting,value
B1,glycan array binding signal (z-score),[30],-0.573
same,glycan array binding signal (z-score),[24],0.327
same,glycan array binding signal (z-score),[33],-0.085
